Not every detail of the peptide structures is certain; ends, links or a residue may be inferred. Residues, ends and D or L forms follow the SMILES beside them.
Assays:
[1] = CD spectra: conformation of peptides in water and TFE; format: physicochemical; settings: fits ±3% (SEM of fit)
Method: CD Spectra. Circular dichroic (CD) spectra of samples in 1 mm circular cuvettes were recorded at room temperature on a Jasco J-500A Spectropolarimeter with 2 nm slit width. The CD spectrum of buffer was subtracted from the CD spectrum of the sample after each scan. The scan rate is 2 nm/min and the time constant was 8 sec. Data was collected at 0.04 nm intervals and averaged over a 0.2 nm interval.

[2] = system: surfactant-deficient lavaged adult rat lungs; assay: Isolated rat lavaged lung model (pressure-volume deflation curves); format: in vivo; settings: statement in words
Text: Methods of testing the synthetic surfactant preparations for efficacy are well known in the art. For example, the synthetic surfactant preparations of the present invention can be tested in any appropriate manner such as in the adult rat lung model (Ikegami, et al., (1979) Pediatr. Res. 13, 777-780).
Pressure-volume characteristics of surfactant-depleted rat lungs are similar to those of lungs of infants with hyaline membrane disease and restoration of the pressure-volume relationship of the lung to normal is related to the amount of surfactant instilled in a dose dependent manner. (Bermel, M. S., et al., Lavaged excised rat lungs as a model of surfactant deficiency, Lung 162:99-113 (1984)).
Isolated Rat Lavaged Lung Model. The experimental procedures for animal preparation, pressure-volume curve registration and lung lavage were adapted from those described by Ikegami et al., Pediatr. Res. 11:178-182 (1977) and Pediatr. […] The total volume of air infused was recorded as the total lung capacity (TLC) which was generally 14-15 ml. […] During deflation, pressure was read from the water manometer at 1 cm intervals and recorded. […] The deflation limbs of the pressure-volume (P-V) curves in adult rat lungs were analyzed by calculating the total lung capacities (%TLC) at 5 and 10 cm H2 O pressure (PC5 and PC10).

[3] = system: soy phosphatidyl-choline (PC); assay: Antioxidant activity: inhibition of Fe-initiated lipid peroxidation (TBARs); format: biochemical; settings: in soy PC mixtures; 50 μM Fe2+ plus 50 μM Fe3+/250 μM histidine, 37° C., 15 min
Method: Antioxidant Activity. Peptides were dissolved in trifluoroethanol (TFE) and mixed with soy phosphatidyl-choline (PC) in chloroform. After drying under a N2 stream, the mixture was resuspended in ethanol and injected into buffer (50 mM NaCl, 50 mM Tris-HCl, pH 7.0) to obtain a final concentration of 0.5 mM phospholipid. Peroxidation was initiated with 50 μM Fe^2+ plus a mixture of 50 μM Fe^3+ and 250 μM histidine. At intervals over a period of 15 min at 37° C., 1 mL samples of the reaction mixture were taken for determination of TBARs (thiobarbituric acid reactive substances). Two mL of a mixture of 2 parts of 0.67% thiobarbituric acid/0.05N NaOH and 1 part of 10% trichloroacetic acid and 0.05 mL of 2% butylated hydroxytoluene were added. Reaction proceeded for 30 min at 100° C. The tubes were then cooled, centrifuged for 15 min at 3000 rpm and transferred to acrylic cuvettes. The differences in absorbance at 532 nm and 700 nm (to correct for light scattering) were measured and the TBARs were calculated in units of malondialdehyde equivalents using a molar extinction coefficient of 1.56×10^5 M^-1 cm^-1.

[4] = water, fit to standard spectra of Greenfield & Fasman

Row | SMILES | Conformation based on CD spectra: α ([1]; TFE, first TFE column) | Conformation based on CD spectra: α (second TFE column) ([1]; TFE, second TFE column) | Conformation based on CD spectra: α [1, 4] | Conformation based on CD spectra: β [1, 4] | effect on the pressure-volume (P-V) curve of the lavaged lung [2] | antioxidant activity (inhibition of lipid peroxidation) [3]
1 | CC(C)C[C@H](NC(=O)CCC(=O)O)C(=O)N[C@@H](CC(C)C)C(=O)N[C@@H](CCC(=O)O)C(=O)N[C@@H](CCCCN)C(=O)N[C@@H](CC(C)C)C(=O)N[C@@H](CC(C)C)C(=O)N[C@@H](CCC(=O)O)C(=O)N[C@@H](Cc1c[nH]c2ccccc12)C(=O)N[C@@H](CC(C)C)C(=O)N[C@@H](CCCCN)C(N)=O [WMAP10] (HELM PEPTIDE1{[O=C(O)CCC(=O)[*:2]].L.L.E.K.L.L.E.W.L.K.[am]}$$$$V2.0) | 73 | 0 | 64 | 0 | highly effective in restoring the P-V curve | no antioxidant activity
2 | CC(C)C[C@H](NC(=O)CCC(=O)O)C(=O)N[C@@H](CC(C)C)C(=O)N[C@@H](CCC(=O)O)C(=O)N[C@@H](CCCCN)C(=O)N[C@@H](CC(C)C)C(=O)N[C@@H](CC(C)C)C(=O)N[C@@H](CCC(=O)O)C(=O)N[C@@H](CCCCN)C(=O)N[C@@H](CC(C)C)C(=O)N[C@@H](CCCCN)C(N)=O (HELM PEPTIDE1{[O=C(O)CCC(=O)[*:2]].L.L.E.K.L.L.E.K.L.K.[am]}$$$$V2.0) | – | – | – | – | – | Nor did
